Assay results as given in publication PMC9974481, “Structure of SpoT reveals evolutionary tuning of catalysis via conformational constraint” (Nature Chemical Biology, 2022).
Results are given in words; binding and its absence hold for the method and conditions named.

Legend:
[1] = target: Acinetobacter baumannii SpoT (Acinetobacter baumannii); assay: SEC-SAXS; protein at 8 mg/ml, Shodex KW404-4F column in line with SAXS, 500 mM NaCl, 2 mM TCEP, 30 mM Tris-HCl pH 7.0, 10 °C; both purified
[2] = target: Acinetobacter baumannii SpoT (Acinetobacter baumannii); assay: SEC; analytical SEC, 100 µl of protein at 1 mg/ml on Superdex 200 Increase 10300 in SEC buffer (50 mM HEPES pH 7.5, 500 mM NaCl, 500 mM KCl, 2 mM MgCl2, 1 mM TCEP, 0.002% mellitic acid, 1 mM MnCl2); both purified

- binding [1]: no binding (tested: 8 mg ml^−1)
- binding [2]: no binding (tested: 1 mg ml^−1)
Substance: Acinetobacter baumannii SpoT (from UniProt A0ABX6CKF0 1-701) (enzyme)
